No constants are given. Whether binding was seen depends on the method and setting. Binding seen in cells or lysates may run through a third protein. Some binding calls cover weakened binding; strength is not graded here.
Target: MEK2 (HA-tagged) (UniProt P36507)
Assay: co-IP

Protein sequences, listed by entry. Tags and fused reporters are not part of them.
UniProt P27361: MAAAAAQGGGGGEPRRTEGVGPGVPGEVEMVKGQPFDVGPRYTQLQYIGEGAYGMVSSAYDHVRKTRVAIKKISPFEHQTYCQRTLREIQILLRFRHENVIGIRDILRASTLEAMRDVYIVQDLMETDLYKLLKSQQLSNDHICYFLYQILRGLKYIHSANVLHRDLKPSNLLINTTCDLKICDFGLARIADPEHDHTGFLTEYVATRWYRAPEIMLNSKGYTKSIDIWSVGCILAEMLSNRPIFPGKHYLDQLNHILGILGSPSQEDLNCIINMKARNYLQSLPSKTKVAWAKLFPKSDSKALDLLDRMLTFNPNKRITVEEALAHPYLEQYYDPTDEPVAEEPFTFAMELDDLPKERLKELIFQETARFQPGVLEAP

binding: binds
Substance: ERK1 (extracellular regulated protein kinase 1) (from UniProt P27361 1-379) (enzyme)

— paper doi:10.1101/2022.06.27.497627
